Measurements published in the supplement of paper PMC9454738.
This is one part of the list. Repeats in this data set agree poorly, so a single value says little.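 Assays used MDA-MB-231 triple-negative breast cancer cells and their brain-metastatic line MDA-MB-231BRM, stably carrying empty vector, full-length GLI1 or truncated tGLI1. After 48 h, viability was read with CellTiter-Blue and normalized to 1% DMSO vehicle. tGLI1 selectivity meant viability fell 20% more in tGLI1 cells than in vector and GLI1 cells.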

Legend:
Experiment in all cases: cell viability relative to vehicle (DMSO) control (fraction); higher = more viable cells (less growth inhibition)
Settings in all cases: treatment time 48 h
MDA-MB-231 GLI1 = system: MDA-MB-231 GLI1
MDA-MB-231 Vector = system: MDA-MB-231 Vector
MDA-MB-231 tGLI1 = system: MDA-MB-231 tGLI1
MDA-MB-231BRM GLI1 = system: MDA-MB-231BRM GLI1
MDA-MB-231BRM Vector = system: MDA-MB-231BRM Vector
MDA-MB-231BRM tGLI1 = system: MDA-MB-231BRM tGLI1

SMILES | cell viability (MDA-MB-231 GLI1; 0.05 µM) | cell viability (MDA-MB-231 GLI1; 0.5 µM) | cell viability (MDA-MB-231 GLI1; 5 µM) | cell viability (MDA-MB-231 Vector; 0.05 µM) | cell viability (MDA-MB-231 Vector; 0.5 µM) | cell viability (MDA-MB-231 Vector; 5 µM) | cell viability (MDA-MB-231 tGLI1; 0.05 µM) | cell viability (MDA-MB-231 tGLI1; 0.5 µM) | cell viability (MDA-MB-231 tGLI1; 5 µM) | cell viability (MDA-MB-231BRM GLI1; 0.05 µM) | cell viability (MDA-MB-231BRM GLI1; 0.5 µM) | cell viability (MDA-MB-231BRM GLI1; 5 µM) | cell viability (MDA-MB-231BRM Vector; 0.05 µM) | cell viability (MDA-MB-231BRM Vector; 0.5 µM) | cell viability (MDA-MB-231BRM Vector; 5 µM) | cell viability (MDA-MB-231BRM tGLI1; 0.05 µM) | cell viability (MDA-MB-231BRM tGLI1; 0.5 µM) | cell viability (MDA-MB-231BRM tGLI1; 5 µM)
Cc1cc(C)c(/C=C2\C(=O)Nc3ccccc32)[nH]1 [Semaxanib (SU5416)] | 1.06 | 1.09 | 1.03 | 1.2 | 1.25 | 1.14 | 1.18 | 1.03 | 0.928 | 0.978 | 0.997 | 0.911 | 0.989 | 0.969 | 0.923 | 1.01 | 1.03 | 0.958
CN(C)CCOc1ccc(-c2nc(-c3ccncc3)c(-c3ccc4c(c3)CC/C4=N\O)[nH]2)cc1 | 1.32 | 0.654 | -0.199 | 1.68 | 0.576 | -0.157 | 1.19 | 1.17 | -0.0426 | 1.12 | 1.09 | 0.547 | 0.746 | 0.703 | 0.546 | 1.06 | 0.761 | 0.294
C=CC(=O)Nc1ccc(CN2C(=O)N(c3cc(OC)cc(OC)c3)Cc3cnc(Nc4ccc(N5CCN(C)CC5)cc4)nc32)cc1 | 2.16 | 2.83 | 1.15 | 1.12 | 1.27 | 0.565 | 1.29 | 1.28 | 0.571 | 0.814 | 0.7 | 0.686 | 0.879 | 0.706 | 0.688 | 1.21 | 1.04 | 1.06
CCN1CCCC1CNC(=O)c1cc(S(=O)(=O)CC)c(N)cc1OC (centres undefined) [Amisulpride] | 1.1 | 1.13 | 1.11 | 1.04 | 1.2 | 1.19 | 1.05 | 1.17 | 1.21 | 1.02 | 1.04 | 1.04 | 1.01 | 1 | 1.02 | 1.17 | 1.04 | 1.04
O=c1cc(N2CCOCC2)oc2c(-c3cccc4c3sc3ccccc34)cccc12 | 1.37 | 1.16 | 0.555 | 1.18 | 1.22 | 0.672 | 1.45 | 1.21 | 0.618 | 0.991 | 0.943 | 0.784 | 1.06 | 1.06 | 0.783 | 1.07 | 0.992 | 0.851
CC(C)Nc1cc(-c2c[nH]c(C(=O)N[C@H](CO)c3cccc(Cl)c3)c2)c(Cl)cn1 | 1.87 | 1.88 | 1.02 | 1.32 | 0.802 | 0.575 | 1.21 | 0.946 | 0.694 | 0.812 | 0.765 | 0.601 | 0.909 | 0.761 | 0.66 | 1.11 | 1.02 | 0.946
CNC(=O)c1cc(Oc2ccc(NC(=O)Nc3ccc(Cl)c(C(F)(F)F)c3)cc2)ccn1 [Sorafenib] | 1.12 | 1.62 | 0.6 | 0.663 | 0.557 | 0.365 | 0.614 | 0.56 | 0.427 | 0.561 | 0.684 | 0.423 | 0.512 | 0.665 | 0.404 | 0.809 | 0.724 | 0.711
CC1(COc2ccc3c(c2)ncn3-c2ccc3cccc(N4CCC(N)CC4)c3n2)COC1 | 1.11 | 0.963 | 0.111 | 0.93 | 0.913 | 0.277 | 1.23 | 0.824 | 0.169 | 1.04 | 1.15 | 0.985 | 1.1 | 1.11 | 0.971 | 1.05 | 1.24 | 0.902
Nc1ncn([C@H]2C[C@H](O)[C@@H](CO)O2)c(=O)n1 [Decitabine] | 1.05 | 0.922 | 0.822 | 0.768 | 1.2 | 0.837 | 0.998 | 0.918 | 0.841 | 1 | 0.974 | 0.923 | 1.07 | 0.996 | 0.985 | 1.09 | 1.02 | 0.995
CC[C@@H]1C(=O)N(C)c2cnc(Nc3ccc(C(=O)N[C@H]4CC[C@H](N5CCN(CC6CC6)CC5)CC4)cc3OC)nc2N1C(C)C [Volasertib (BI 6727)] | 0.116 | 0.165 | 0.0616 | 0.133 | 0.193 | 0.252 | 0.136 | 0.206 | 0.0404 | 1.41 | 1.16 | 0.908 | 1.44 | 1.15 | 0.849 | 1.27 | 1.14 | 0.77
CC(C)(C)c1cnc(CSc2cnc(NC(=O)C3CCNCC3)s2)o1 | 0.34 | 0.274 | 0.195 | 0.327 | 0.254 | 0.193 | 0.21 | 0.141 | 0.131 | 1.07 | 1.13 | 1.03 | 1.03 | 1.05 | 1.01 | 0.96 | 0.947 | 0.952
CC[C@]1(O)C[C@@H]2CN(CCc3c([nH]c4ccccc34)[C@@](C(=O)OC)(c3cc4c(cc3OC)N(C)[C@H]3[C@@](O)(C(=O)OC)[C@H](OC(C)=O)[C@]5(CC)C=CCN6CC[C@]43[C@@H]65)C2)C1 [Vinblastine] | 0.145 | -0.0795 | -0.128 | -0.0186 | -0.385 | -0.376 | 0.0778 | -0.177 | -0.202 | 0.879 | 0.82 | 0.755 | 0.901 | 0.855 | 0.809 | 0.881 | 0.767 | 0.77
O=C(Nc1nc2cccc(-c3ccc(CN4CCS(=O)(=O)CC4)cc3)n2n1)C1CC1 [Filgotinib (GLPG0634)] | 2.19 | 3.13 | 1.02 | 1.3 | 1.38 | 0.83 | 1.31 | 1.45 | 0.844 | 0.841 | 0.748 | 0.73 | 0.923 | 0.749 | 0.76 | 1.19 | 1.12 | 1.23

2 entries from above, set out differently.
SMILES	cell viability (MDA-MB-231 GLI1; 0.05 µM)	cell viability (MDA-MB-231 GLI1; 0.5 µM)	cell viability (MDA-MB-231 GLI1; 5 µM)	cell viability (MDA-MB-231 Vector; 0.05 µM)	cell viability (MDA-MB-231 Vector; 0.5 µM)	cell viability (MDA-MB-231 Vector; 5 µM)	cell viability (MDA-MB-231 tGLI1; 0.05 µM)	cell viability (MDA-MB-231 tGLI1; 0.5 µM)	cell viability (MDA-MB-231 tGLI1; 5 µM)	cell viability (MDA-MB-231BRM GLI1; 0.05 µM)	cell viability (MDA-MB-231BRM GLI1; 0.5 µM)	cell viability (MDA-MB-231BRM GLI1; 5 µM)	cell viability (MDA-MB-231BRM Vector; 0.05 µM)	cell viability (MDA-MB-231BRM Vector; 0.5 µM)	cell viability (MDA-MB-231BRM Vector; 5 µM)	cell viability (MDA-MB-231BRM tGLI1; 0.05 µM)	cell viability (MDA-MB-231BRM tGLI1; 0.5 µM)	cell viability (MDA-MB-231BRM tGLI1; 5 µM)
CC1(COc2ccc3c(c2)ncn3-c2ccc3cccc(N4CCC(N)CC4)c3n2)COC1	1.11	0.963	0.111	0.93	0.913	0.277	1.23	0.824	0.169	1.04	1.15	0.985	1.1	1.11	0.971	1.05	1.24	0.902
Nc1ncn([C@H]2C[C@H](O)[C@@H](CO)O2)c(=O)n1 [Decitabine]	1.05	0.922	0.822	0.768	1.2	0.837	0.998	0.918	0.841	1	0.974	0.923	1.07	0.996	0.985	1.09	1.02	0.995
